Results deposited as PubChem BioAssay AID1259308 (NCATS, 2017).
Test: 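Knock-downs that increase output of a recombinant reporter protein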 (primary screen). Cell system: human HEK293 embryonic kidney cells stably expressing firefly luciferase (HEK-CMV-Luc2-Hygro). Reagent: single siRNA against human genes, 0.8 pmol siRNA per well. Time to read-out: 72 h. Measurement: 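Luciferase light (ONE-Glo) measured on one replicate plate set and viability (CellTiter-Glo) on the other, scaled to a negative control siRNA, with robust z-scores and luciferase per cell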. Direction: total luciferase, z-score and total luciferase, % of control: higher = more reporter protein produced; luciferase per cell, z-score: higher = more reporter output per viable cell. Rule for the call: 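An siRNA counts as active if its total luciferase robust z-score exceeds 3; genes with two or more such siRNAs out of three were retested with fresh siRNAs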. Calls: active = raised luciferase; inactive = no rise.
In all, the deposit lists about 59,000 reagents; this is a random part of them. About 1,510 of them (2.6%) count as active. 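Calls use total luciferase alone and ignore viability, so some active siRNAs may act by altering cell number.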 Reagents against one gene are numbered here. Not all columns of the deposit are shown.

Gene,siRNA no.,"total luciferase, z-score","total luciferase, % of control","luciferase per cell, z-score",call
LOC646012,1,2.06,123,1.26,inactive
LOC646012,2,0.113,84.1,-0.583,inactive
LOC646012,3,0.366,89.2,0.181,inactive
S100A4,1,1.96,121,1.76,inactive
S100A4,2,0.153,84.9,0.388,inactive
S100A4,3,-1.73,47.5,-1.46,inactive
ROM1,1,1.03,102,0.386,inactive
ROM1,2,-0.345,75,0.29,inactive
ROM1,3,-0.619,69.6,0.214,inactive
FAM168B,1,-0.583,70.3,-0.2,inactive
FAM168B,2,2.05,123,1.79,inactive
FAM168B,3,0.267,87.2,0.33,inactive
ADGRG1,1,-0.83,65.4,-0.159,inactive
ADGRG1,2,-1.23,57.5,-0.628,inactive
ADGRG1,3,-0.643,69.1,1.6,inactive
AP4M1,1,0.126,84.4,0.0449,inactive
AP4M1,2,-2.73,27.6,-3.81,inactive
AP4M1,3,-0.947,63.1,-0.873,inactive
TMEM117,1,-0.17,78.5,-0.697,inactive
TMEM117,2,-0.789,66.2,-0.373,inactive
TMEM117,3,-1.73,47.4,-2.24,inactive
KAAG1,1,-0.173,78.4,0.16,inactive
KAAG1,2,0.699,95.8,1.06,inactive
KAAG1,3,1.25,107,1.31,inactive
SLC6A1,1,1.27,107,0.763,inactive
SLC6A1,2,-0.224,77.4,0.0374,inactive
SLC6A1,3,-0.616,69.6,-0.0675,inactive
LOC642355,1,0.682,95.5,0.289,inactive
LOC642355,2,-0.687,68.2,-1.55,inactive
LOC642355,3,-0.643,69.1,-0.399,inactive
PSMB11,1,0.35,88.8,-0.665,inactive
PSMB11,2,-0.0243,81.4,-0.132,inactive
PSMB11,3,0.93,100,0.555,inactive
TEX13B,1,1.87,119,2.13,inactive
TEX13B,2,1.93,120,2.56,inactive
TEX13B,3,1.84,119,1.5,inactive
NBPF11,1,-0.768,66.6,-0.271,inactive
NBPF11,2,-1.65,49.1,-1.98,inactive
NBPF11,3,-0.135,79.2,-0.412,inactive
